Among the data in article doi:10.1101/2022.09.23.508845 are binding values, retold here.

Protein sequences, listed by entry. Tags and fused reporters are not part of them.
UniProt O43156: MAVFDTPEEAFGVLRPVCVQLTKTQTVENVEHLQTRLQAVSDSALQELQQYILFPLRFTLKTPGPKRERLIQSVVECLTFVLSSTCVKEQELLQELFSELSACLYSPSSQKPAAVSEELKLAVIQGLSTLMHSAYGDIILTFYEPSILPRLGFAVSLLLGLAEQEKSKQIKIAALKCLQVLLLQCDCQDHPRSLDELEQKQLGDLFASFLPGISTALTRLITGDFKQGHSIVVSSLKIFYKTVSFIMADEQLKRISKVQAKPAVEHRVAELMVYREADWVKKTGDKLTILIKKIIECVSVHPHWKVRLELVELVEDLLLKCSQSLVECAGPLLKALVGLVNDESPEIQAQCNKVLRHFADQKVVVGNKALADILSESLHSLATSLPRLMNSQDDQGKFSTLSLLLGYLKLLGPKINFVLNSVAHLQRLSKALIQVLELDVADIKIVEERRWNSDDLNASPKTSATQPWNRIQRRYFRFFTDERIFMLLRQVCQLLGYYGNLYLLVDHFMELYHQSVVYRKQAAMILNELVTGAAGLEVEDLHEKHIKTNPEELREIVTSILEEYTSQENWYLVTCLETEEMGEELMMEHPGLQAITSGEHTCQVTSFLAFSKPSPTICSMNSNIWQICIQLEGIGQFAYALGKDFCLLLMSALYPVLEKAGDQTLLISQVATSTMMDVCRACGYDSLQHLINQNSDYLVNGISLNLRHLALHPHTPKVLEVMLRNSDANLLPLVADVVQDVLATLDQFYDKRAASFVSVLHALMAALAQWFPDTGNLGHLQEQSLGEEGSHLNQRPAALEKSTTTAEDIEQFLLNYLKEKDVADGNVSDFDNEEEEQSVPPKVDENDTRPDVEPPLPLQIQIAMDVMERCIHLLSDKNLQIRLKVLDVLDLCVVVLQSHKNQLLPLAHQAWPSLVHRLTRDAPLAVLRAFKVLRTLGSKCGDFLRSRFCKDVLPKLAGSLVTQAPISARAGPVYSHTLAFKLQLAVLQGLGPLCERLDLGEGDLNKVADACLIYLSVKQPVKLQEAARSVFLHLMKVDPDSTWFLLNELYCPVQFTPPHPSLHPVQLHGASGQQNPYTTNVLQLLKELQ
UniProt Q13535: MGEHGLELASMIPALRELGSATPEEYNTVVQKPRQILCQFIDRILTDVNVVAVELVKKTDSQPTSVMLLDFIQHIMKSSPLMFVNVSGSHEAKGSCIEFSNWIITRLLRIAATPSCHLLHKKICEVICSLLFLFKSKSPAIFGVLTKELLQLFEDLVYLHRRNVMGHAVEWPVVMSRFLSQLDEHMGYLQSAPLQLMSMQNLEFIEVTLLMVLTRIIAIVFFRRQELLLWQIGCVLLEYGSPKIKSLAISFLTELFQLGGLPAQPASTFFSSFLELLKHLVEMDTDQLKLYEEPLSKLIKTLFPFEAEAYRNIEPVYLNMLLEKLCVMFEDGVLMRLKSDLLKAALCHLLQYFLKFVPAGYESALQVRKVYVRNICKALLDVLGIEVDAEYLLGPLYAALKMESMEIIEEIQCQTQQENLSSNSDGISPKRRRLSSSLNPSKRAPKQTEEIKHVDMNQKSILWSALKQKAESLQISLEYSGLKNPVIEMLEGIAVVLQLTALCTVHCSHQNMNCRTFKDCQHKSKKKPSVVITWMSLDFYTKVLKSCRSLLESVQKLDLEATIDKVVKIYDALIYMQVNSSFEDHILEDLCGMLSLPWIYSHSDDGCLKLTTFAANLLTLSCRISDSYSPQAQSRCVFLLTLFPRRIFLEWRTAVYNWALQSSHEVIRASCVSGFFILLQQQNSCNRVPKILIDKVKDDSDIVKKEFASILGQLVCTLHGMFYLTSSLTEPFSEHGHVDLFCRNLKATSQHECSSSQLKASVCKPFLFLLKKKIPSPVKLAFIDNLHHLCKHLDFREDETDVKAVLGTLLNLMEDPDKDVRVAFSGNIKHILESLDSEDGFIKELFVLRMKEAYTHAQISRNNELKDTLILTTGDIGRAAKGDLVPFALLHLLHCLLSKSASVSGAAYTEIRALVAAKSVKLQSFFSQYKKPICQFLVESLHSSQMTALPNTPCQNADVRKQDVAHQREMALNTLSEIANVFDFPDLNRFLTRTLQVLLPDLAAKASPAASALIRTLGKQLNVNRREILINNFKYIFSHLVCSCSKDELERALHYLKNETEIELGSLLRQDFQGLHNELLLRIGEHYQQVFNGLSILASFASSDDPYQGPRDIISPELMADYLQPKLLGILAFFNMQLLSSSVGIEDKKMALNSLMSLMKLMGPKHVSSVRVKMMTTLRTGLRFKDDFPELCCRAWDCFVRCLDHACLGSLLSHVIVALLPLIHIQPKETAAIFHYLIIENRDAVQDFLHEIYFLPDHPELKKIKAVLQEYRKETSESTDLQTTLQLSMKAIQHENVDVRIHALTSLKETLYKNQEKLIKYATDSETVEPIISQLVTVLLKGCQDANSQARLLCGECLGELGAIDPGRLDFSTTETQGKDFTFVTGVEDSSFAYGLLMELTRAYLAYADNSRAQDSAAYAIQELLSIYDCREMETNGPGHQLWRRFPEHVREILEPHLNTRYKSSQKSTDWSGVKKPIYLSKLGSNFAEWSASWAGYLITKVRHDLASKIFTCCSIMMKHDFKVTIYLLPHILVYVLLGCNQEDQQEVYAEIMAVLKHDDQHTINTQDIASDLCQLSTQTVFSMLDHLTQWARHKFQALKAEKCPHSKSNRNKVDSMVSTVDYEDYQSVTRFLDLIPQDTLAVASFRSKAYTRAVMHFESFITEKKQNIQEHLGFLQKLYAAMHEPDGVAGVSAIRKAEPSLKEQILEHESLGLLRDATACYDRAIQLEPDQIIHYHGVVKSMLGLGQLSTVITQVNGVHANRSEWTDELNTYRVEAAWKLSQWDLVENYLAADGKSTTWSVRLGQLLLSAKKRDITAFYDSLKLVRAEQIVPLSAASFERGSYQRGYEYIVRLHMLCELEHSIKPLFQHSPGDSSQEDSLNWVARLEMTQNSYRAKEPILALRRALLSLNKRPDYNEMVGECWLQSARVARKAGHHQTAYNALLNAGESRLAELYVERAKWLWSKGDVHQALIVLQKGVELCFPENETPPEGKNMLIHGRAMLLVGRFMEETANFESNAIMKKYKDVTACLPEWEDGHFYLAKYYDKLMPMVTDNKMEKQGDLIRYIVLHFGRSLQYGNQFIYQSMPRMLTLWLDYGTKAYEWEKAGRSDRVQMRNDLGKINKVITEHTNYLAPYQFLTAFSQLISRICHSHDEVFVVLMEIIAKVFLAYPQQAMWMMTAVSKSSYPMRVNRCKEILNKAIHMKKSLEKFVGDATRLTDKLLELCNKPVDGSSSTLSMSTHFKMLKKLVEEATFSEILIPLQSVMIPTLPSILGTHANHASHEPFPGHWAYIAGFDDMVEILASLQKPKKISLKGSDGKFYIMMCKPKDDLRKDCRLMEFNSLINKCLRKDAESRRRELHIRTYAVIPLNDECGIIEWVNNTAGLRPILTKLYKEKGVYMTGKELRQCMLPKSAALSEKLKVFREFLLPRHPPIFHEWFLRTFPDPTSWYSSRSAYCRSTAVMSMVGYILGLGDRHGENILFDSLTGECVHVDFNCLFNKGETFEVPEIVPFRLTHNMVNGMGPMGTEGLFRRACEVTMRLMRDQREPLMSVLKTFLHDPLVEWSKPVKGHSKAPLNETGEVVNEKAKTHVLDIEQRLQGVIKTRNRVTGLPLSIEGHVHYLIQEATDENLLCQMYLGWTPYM

Like-named read-outs stand apart in the source and are kept apart here. No constants are given. Whether binding was seen depends on the method and setting. In cells and extracts the contact can be indirect. Here binding means that the protein was enriched with, or labelled near, the bait; the list need not be complete. Tags and fused reporters may be left off the sequences shown.

For assay [1], the target named is T1, miniTurbo-3xFlag-GNB1L (human) (UniProt Q9BYB4).
T1 sequence: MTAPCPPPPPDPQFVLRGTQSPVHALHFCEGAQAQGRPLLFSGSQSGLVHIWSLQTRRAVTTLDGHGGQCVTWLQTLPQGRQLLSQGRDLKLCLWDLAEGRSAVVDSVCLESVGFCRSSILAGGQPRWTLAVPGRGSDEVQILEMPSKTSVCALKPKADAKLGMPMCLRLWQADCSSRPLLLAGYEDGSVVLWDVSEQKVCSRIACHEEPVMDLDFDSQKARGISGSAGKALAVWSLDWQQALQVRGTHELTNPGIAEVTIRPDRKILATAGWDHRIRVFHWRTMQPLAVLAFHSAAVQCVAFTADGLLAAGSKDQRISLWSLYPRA
Description: proximity labelling.

For assay [2], the target named is T1, miniTurbo-3xFlag-GNB1L (human). Description: proximity labelling. This is another data set of the same source.

As to DNA-PKcs (from UniProt P78527 1-4128), the binding result in assay [1] and in assay [2] was “binds” throughout.

For the molecule TRRAP (from UniProt Q9Y4A5 1-3859), the binding result in assay [1] and in assay [2] was “binds” throughout.

As to TTI1 (from UniProt O43156 1-1089), the binding result in assay [1] and in assay [2] was “binds” throughout.

ATR (from UniProt Q13535 1-2644): the binding entry in assay [1] and in assay [2] was “binds” in each case.

B1: TTI2 (protein, UniProt Q6NXR4 1-508)
chain: MELDSALEAPSQEDSNLSEELSHSAFGQAFSKILHCLARPEARRGNVKDAVLKDLGDLIEATEFDRLFEGTGARLRGMPETLGQVAKALEKYAAPSKEEEGGGDGHSEAAEKAAQVGLLFLKLLGKVETAKNSLVGPAWQTGLHHLAGPVYIFAITHSLEQPWTTPRSREVAREVLTSLLQVTECGSVAGFLHGENEDEKGRLSVILGLLKPDLYKESWKNNPAIKHVFSWTLQQVTRPWLSQHLERVLPASLVISDDYQTENKILGVHCLHHIVLNVPAADLLQYNRAQVLYHAISNHLYTPEHHLIQAVLLCLLDLFPILEKTLHWKGDGARPTTHCDEVLRLILTHMEPEHRLLLRRTYARNLPAFVNRLGILTVRHLKRLERVIIGYLEVYDGPEEEARLKILETLKLLMQHTWPRVSCRLVVLLKALLKLICDVARDPNLTPESVKSALLQEATDCLILLDRCSQGRVKGLLAKIPQSCEDRKVVNYIRKVQQVSEGAPYNGT
As to B1, the binding result in assay [2] was “binds”.
